The results in this text go back to publication PMC10036336.

Sequences of proteins named here, by UniProt entry; tags and fusion partners are left off. A change or cut given only in a name is not applied to a line headed by its entry.
UniProt Q61735: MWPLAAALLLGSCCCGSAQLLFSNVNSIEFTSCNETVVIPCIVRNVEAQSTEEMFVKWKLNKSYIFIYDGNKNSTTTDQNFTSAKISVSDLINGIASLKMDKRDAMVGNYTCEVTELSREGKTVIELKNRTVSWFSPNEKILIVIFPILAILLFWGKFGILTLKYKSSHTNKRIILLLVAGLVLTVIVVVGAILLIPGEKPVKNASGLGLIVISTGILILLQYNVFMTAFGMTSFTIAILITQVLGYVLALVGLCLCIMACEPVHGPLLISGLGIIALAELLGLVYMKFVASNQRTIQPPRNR

The test has as its target CD47 protein (recombinant) (not stated (recombinant mouse and human CD47 bought)) (UniProt Q61735). The experiment in a line: far-Western, overlay or dot blot; CD47 protein adsorbed onto a nitrocellulose membrane; bacterial lysates of Fe-Bac-HlpA/CD47nb-BLPs after AMF treatment (310 kHz and 23.8 kA/m) added; bound CD47nb detected with an anti-Myc tag antibody; excess anti-CD47 antibodies as competitor, IgG as its negative control; only the target purified.

No constants are given. Whether binding was seen depends on the method and setting. Binding calls can cover weak binding; strength is not graded here.

B1: anti-CD47 nanobody (CD47nb) (VHH)
VHH: QVQLVESGGGLVEPGGSLRLSCAASGIIFKINDMGWYRQAPGKRREWVAASTGGDEAIYRDSVKDRFTISRDAKNSVFLQMNSLKPEDTAVYYCTAVISTDRDGTEWRRYWGQGTQVTVSS
Regarding B1, the binding entry is on record as “binds”.
